Assay results reported in the supplement of paper PMC11348887.
Counter-ions that a name gives are not always drawn. This is one part of the list. Most values lie at the level of the controls, where differences are scatter.

tested on: hPSC-derived cortical neurons (WA09); test: nucleus roundness z-score vs screen plate; higher = rounder nuclei (more mature); conditions: 5 µM; treatment: days 7-14 after plating, readout day 21

Compound	nucleus roundness z-score
C=CCNc1ncnc2ccc(Br)cc12	-1.2
O=C(O)C(O)Cc1ccc(O)c(O)c1 (stereo not drawn) [Sodium Danshensu]	0.756
CC(=O)N1CCN(c2ccc(OCC3COC(Cn4ccnc4)(c4ccc(Cl)cc4Cl)O3)cc2)CC1 (stereo not drawn) [Ketoconazole]	-0.272
CN1CCOC(c2ccccc2)c2ccccc2C1 (stereo not drawn) [Nefopam HCl]	-0.931
Cc1c(NC(=O)c2ccc(C(C)(C)C)cc2)cccc1-c1cn(C)c(=O)c(Nc2ccc(C(=O)N3CCOCC3)cc2)n1	0.806
COc1ccccc1OCC(O)CN1CCN(CC(=O)Nc2c(C)cccc2C)CC1 (stereo not drawn) [Ranolazine 2HCl]	0.086
CSc1cccc(Nc2ncc3cc(-c4c(Cl)cccc4Cl)c(=O)n(C)c3n2)c1	0.969
C=C1C[C@@]2(O)O[C@@]3(C[C@H]2C(C)C)[C@@H](C)CC[C@@H]13 [Curcumol]	-0.0886
CCOC(=O)CC(=O)N1CCSC1COc1ccccc1OC (stereo not drawn) [Moguisteine]	-0.431
Cn1nc(C(C)(C)C)cc1C(=O)N[C@@H](Cc1cccc(Cl)c1)C(=O)NCC#N [Cathepsin Inhibitor 1]	1.25
O=c1c(O)c(-c2ccc(O)c(O)c2)oc2cc(O)ccc12 [Fisetin]	0.211
c1ccc2[nH]c(-c3cscn3)nc2c1 [Thiabendazole]	-1.81
COc1cc(C(C)=O)ccc1OCCCN1CCC(c2noc3cc(F)ccc23)CC1 [Iloperidone]	-0.363
CCOC(=O)c1c(C)n(C)c2ccc(O)cc12 [Mecarbinate]	-0.178
CCCCOc1cc(C(=O)NCCN(CC)CC)c2ccccc2n1 [Dibucaine HCl]	0.201
CCOc1cc(N)c(Cl)cc1C(=O)NCC1CN(Cc2ccc(F)cc2)CCO1 (stereo not drawn) [Mosapride Citrate]	0.109
CCCCCCNC(=O)n1cc(F)c(=O)[nH]c1=O [Carmofur]	0.618
COc1ccc([C@@H]2CC(=O)c3c(O)cc(O)cc3O2)cc1O [Hesperetin]	0.155
CC(=O)Oc1cccc2c1C(=O)c1c(OC(C)=O)cc(C(=O)O)cc1C2=O [Diacerein]	0.544
CN1CCc2nc(C(=O)N[C@@H]3C[C@@H](C(=O)N(C)C)CC[C@@H]3NC(=O)C(=O)Nc3ccc(Cl)cn3)sc2C1 [Edoxaban]	0.362

15 successive entries from above, for reference:
Compound	nucleus roundness z-score
CC(=O)N1CCN(c2ccc(OCC3COC(Cn4ccnc4)(c4ccc(Cl)cc4Cl)O3)cc2)CC1 (stereo not drawn) [Ketoconazole]	-0.272
CN1CCOC(c2ccccc2)c2ccccc2C1 (stereo not drawn) [Nefopam HCl]	-0.931
Cc1c(NC(=O)c2ccc(C(C)(C)C)cc2)cccc1-c1cn(C)c(=O)c(Nc2ccc(C(=O)N3CCOCC3)cc2)n1	0.806
COc1ccccc1OCC(O)CN1CCN(CC(=O)Nc2c(C)cccc2C)CC1 (stereo not drawn) [Ranolazine 2HCl]	0.086
CSc1cccc(Nc2ncc3cc(-c4c(Cl)cccc4Cl)c(=O)n(C)c3n2)c1	0.969
C=C1C[C@@]2(O)O[C@@]3(C[C@H]2C(C)C)[C@@H](C)CC[C@@H]13 [Curcumol]	-0.0886
CCOC(=O)CC(=O)N1CCSC1COc1ccccc1OC (stereo not drawn) [Moguisteine]	-0.431
Cn1nc(C(C)(C)C)cc1C(=O)N[C@@H](Cc1cccc(Cl)c1)C(=O)NCC#N [Cathepsin Inhibitor 1]	1.25
O=c1c(O)c(-c2ccc(O)c(O)c2)oc2cc(O)ccc12 [Fisetin]	0.211
c1ccc2[nH]c(-c3cscn3)nc2c1 [Thiabendazole]	-1.81
COc1cc(C(C)=O)ccc1OCCCN1CCC(c2noc3cc(F)ccc23)CC1 [Iloperidone]	-0.363
CCOC(=O)c1c(C)n(C)c2ccc(O)cc12 [Mecarbinate]	-0.178
CCCCOc1cc(C(=O)NCCN(CC)CC)c2ccccc2n1 [Dibucaine HCl]	0.201
CCOc1cc(N)c(Cl)cc1C(=O)NCC1CN(Cc2ccc(F)cc2)CCO1 (stereo not drawn) [Mosapride Citrate]	0.109
CCCCCCNC(=O)n1cc(F)c(=O)[nH]c1=O [Carmofur]	0.618

Later entries

Compound	nucleus roundness z-score
O=C1CCC[C@@H]2[C@H]3CCC[N+]4([O-])CCC[C@@H](CN12)[C@@H]34 (stereo partly drawn) [Oxymatrine]	-0.0937
CC(C)(C)c1cc(C(=O)C(C#N)=NNc2cccc(Cl)c2)no1	0.207
O=[N+]([O-])c1ccc(O)c2ncccc12 [Nitroxoline]	0.435
COc1ccccc1N1CCN(CCN2C(=O)CC3(CCCC3)CC2=O)CC1	0.996
COCCOC(=O)C1=C(C)NC(C)=C(C(=O)OC(C)C)C1c1cccc([N+](=O)[O-])c1 (stereo not drawn) [Nimodipine]	-1
CCCc1ccc(OCC(=O)N(Cc2nc(-c3cccnc3)no2)C(C)C)cc1	0.929
COc1ccc2cc(CCC(C)=O)ccc2c1 [Nabumetone]	0.734
COc1ccccc1C(=O)Nc1cc2c(cc1N1CCCC1)n(C)c(=O)n2C	0.381
COc1ccc(-c2cc3c(C)nc(N)nc3n([C@H]3CC[C@H](OCCO)CC3)c2=O)cn1	0.282
CC1(C)S[C@@H]2[C@H](NC(=O)[C@H](NC(=O)N3CCN(S(C)(=O)=O)C3=O)c3ccccc3)C(=O)N2[C@H]1C(=O)O [Mezlocillin Sodium]	0.0348
CCC(=O)O[C@]1(C(=O)CCl)[C@@H](C)C[C@H]2[C@@H]3CCC4=CC(=O)C=C[C@]4(C)[C@@]3(F)[C@@H](O)C[C@@]21C [Clobetasol propionate]	-1.42
CCOC(=O)[C@H](CCc1ccccc1)N[C@@H](C)C(=O)N1CCC[C@H]1C(=O)O [Enalapril Maleate]	0.807
CC(C)CC(=O)Nc1n[nH]c2c1CN(C(=O)C1CCN(C)CC1)C2(C)C	-4.35
CCN1CCC[C@H]1CNC(=O)c1cc(S(N)(=O)=O)ccc1OC [Levosulpiride]	1.16
CCn1c2ccccc2c2cc(Nc3ccnc(NCCCN4CCOCC4)n3)ccc21	0.81
O=C(NCc1cccc(O)c1)Nc1nc(-c2ccncc2)cs1	0.173
O=C(NNc1nc2cc(F)ccc2n2cccc12)c1cnccn1	-0.806
O=C1c2c(O)ccc(O)c2C(=O)c2c(NCCNCCO)ccc(NCCNCCO)c21 [Mitoxantrone]	2.5
Cc1ncc([N+](=O)[O-])n1CC(C)O (stereo not drawn) [Secnidazole]	0.0463

tested on: hPSC-derived cortical neurons (WA09); test: KCl-induced FOS+/EGR-1+ double-positive nuclei fraction z-score (KCl minus unstimulated); higher = stronger activity-induced IEG response; conditions: 5 µM; treatment: days 7-14 after plating, readout day 21

Compound	KCl-induced FOS+/EGR-1+ double-positive nuclei fraction z-score
C=CCNc1ncnc2ccc(Br)cc12	-0.777
O=C(O)C(O)Cc1ccc(O)c(O)c1 (stereo not drawn) [Sodium Danshensu]	0.611
CC(=O)N1CCN(c2ccc(OCC3COC(Cn4ccnc4)(c4ccc(Cl)cc4Cl)O3)cc2)CC1 (stereo not drawn) [Ketoconazole]	-0.923
CN1CCOC(c2ccccc2)c2ccccc2C1 (stereo not drawn) [Nefopam HCl]	-0.0925
Cc1c(NC(=O)c2ccc(C(C)(C)C)cc2)cccc1-c1cn(C)c(=O)c(Nc2ccc(C(=O)N3CCOCC3)cc2)n1	1.9
COc1ccccc1OCC(O)CN1CCN(CC(=O)Nc2c(C)cccc2C)CC1 (stereo not drawn) [Ranolazine 2HCl]	-0.206
CSc1cccc(Nc2ncc3cc(-c4c(Cl)cccc4Cl)c(=O)n(C)c3n2)c1	-0.477
C=C1C[C@@]2(O)O[C@@]3(C[C@H]2C(C)C)[C@@H](C)CC[C@@H]13 [Curcumol]	-0.425
CCOC(=O)CC(=O)N1CCSC1COc1ccccc1OC (stereo not drawn) [Moguisteine]	-0.292
Cn1nc(C(C)(C)C)cc1C(=O)N[C@@H](Cc1cccc(Cl)c1)C(=O)NCC#N [Cathepsin Inhibitor 1]	1.24
O=c1c(O)c(-c2ccc(O)c(O)c2)oc2cc(O)ccc12 [Fisetin]	0.187
c1ccc2[nH]c(-c3cscn3)nc2c1 [Thiabendazole]	-0.491
COc1cc(C(C)=O)ccc1OCCCN1CCC(c2noc3cc(F)ccc23)CC1 [Iloperidone]	-1.71
CCOC(=O)c1c(C)n(C)c2ccc(O)cc12 [Mecarbinate]	-0.645
CCCCOc1cc(C(=O)NCCN(CC)CC)c2ccccc2n1 [Dibucaine HCl]	0.804
CCOc1cc(N)c(Cl)cc1C(=O)NCC1CN(Cc2ccc(F)cc2)CCO1 (stereo not drawn) [Mosapride Citrate]	0.159
CCCCCCNC(=O)n1cc(F)c(=O)[nH]c1=O [Carmofur]	-0.146
COc1ccc([C@@H]2CC(=O)c3c(O)cc(O)cc3O2)cc1O [Hesperetin]	-0.259
CC(=O)Oc1cccc2c1C(=O)c1c(OC(C)=O)cc(C(=O)O)cc1C2=O [Diacerein]	0.864
CN1CCc2nc(C(=O)N[C@@H]3C[C@@H](C(=O)N(C)C)CC[C@@H]3NC(=O)C(=O)Nc3ccc(Cl)cn3)sc2C1 [Edoxaban]	0.447

Compound	KCl-induced FOS+/EGR-1+ double-positive nuclei fraction z-score
O=C1CCC[C@@H]2[C@H]3CCC[N+]4([O-])CCC[C@@H](CN12)[C@@H]34 (stereo partly drawn) [Oxymatrine]	0.639
CC(C)(C)c1cc(C(=O)C(C#N)=NNc2cccc(Cl)c2)no1	1.29
O=[N+]([O-])c1ccc(O)c2ncccc12 [Nitroxoline]	-0.365
COc1ccccc1N1CCN(CCN2C(=O)CC3(CCCC3)CC2=O)CC1	0.589
COCCOC(=O)C1=C(C)NC(C)=C(C(=O)OC(C)C)C1c1cccc([N+](=O)[O-])c1 (stereo not drawn) [Nimodipine]	-1.28
CCCc1ccc(OCC(=O)N(Cc2nc(-c3cccnc3)no2)C(C)C)cc1	1.79
COc1ccc2cc(CCC(C)=O)ccc2c1 [Nabumetone]	1.21
COc1ccccc1C(=O)Nc1cc2c(cc1N1CCCC1)n(C)c(=O)n2C	0.275
COc1ccc(-c2cc3c(C)nc(N)nc3n([C@H]3CC[C@H](OCCO)CC3)c2=O)cn1	-0.9
CC1(C)S[C@@H]2[C@H](NC(=O)[C@H](NC(=O)N3CCN(S(C)(=O)=O)C3=O)c3ccccc3)C(=O)N2[C@H]1C(=O)O [Mezlocillin Sodium]	0.0804
CCC(=O)O[C@]1(C(=O)CCl)[C@@H](C)C[C@H]2[C@@H]3CCC4=CC(=O)C=C[C@]4(C)[C@@]3(F)[C@@H](O)C[C@@]21C [Clobetasol propionate]	-1.29
CCOC(=O)[C@H](CCc1ccccc1)N[C@@H](C)C(=O)N1CCC[C@H]1C(=O)O [Enalapril Maleate]	0.401
CC(C)CC(=O)Nc1n[nH]c2c1CN(C(=O)C1CCN(C)CC1)C2(C)C	-1.09
CCN1CCC[C@H]1CNC(=O)c1cc(S(N)(=O)=O)ccc1OC [Levosulpiride]	1.45
CCn1c2ccccc2c2cc(Nc3ccnc(NCCCN4CCOCC4)n3)ccc21	-0.571
O=C(NCc1cccc(O)c1)Nc1nc(-c2ccncc2)cs1	-0.957
O=C(NNc1nc2cc(F)ccc2n2cccc12)c1cnccn1	-8.94
O=C1c2c(O)ccc(O)c2C(=O)c2c(NCCNCCO)ccc(NCCNCCO)c21 [Mitoxantrone]	-0.377
Cc1ncc([N+](=O)[O-])n1CC(C)O (stereo not drawn) [Secnidazole]	-0.0768
